According to patent US20070271620A1, “Animal model for type II diabetes mellitus and Syndrome X and methods and uses thereof” (priority 2005, published 2007):

Test system: STZ (130 mg/kg) diabetic pigs
Assay: Two-week oral metformin treatment of STZ diabetic pigs: postprandial plasma glucose and insulin, body weight, urinary glucose excretion
Assay type: in vivo, pig
Procedure: Protocol 5: insulin-mediated whole body glucose disposal, after a two-week placebo or metformin (twice 1.5 g per day) oral treatment period under conditions of iso-energetic feeding, was studied with the hyperinsulinemic (2 mU/kg/minute) euglycemic clamp technique in 14 STZ (130 mg/kg) diabetic pigs.
Fasting blood samples were taken before the start of hyperinsulinemic clamp experiments and postprandial blood samples were taken two to three hours after a morning meal in the week following a clamp study.
Plasma insulin concentration was measured using a Delfia assay (test kit No. B080-1101 by Perkin Elmer Life Sciences, trust by Wallac Oy, Turku, Finland). This specific pig insulin assay was validated using pig insulin standards. Plasma and urine glucose concentrations were analyzed enzymically on an autoanalyzer of Radiometer (ABL and AML, Copenhagen, Denmark). Urine was collected in buckets containing 0.5 grams Halamid-d (sodium-p-toluenesulfonchloramide, Akzo Nobel Chemicals, Amersfoort, NL) to prevent microbial breakdown of glucose. Urine volume was registered over a given interval in order to calculate the rate of urinary glucose excretion. Urine samples (0.5 mL) were stored at −20° C. for later glucose analyses. Ketones (acetoacetic acid) were determined in fresh urine by a reagent strip test (Ketostix, Bayer Diagnostics, Mijdrecht, NL).

Q: For `CN(C)C(=N)N=C(N)N` [Metformin, metformin], which “Body weight at end of treatment” value (metformin twice 1.5 g per day oral, two weeks) is on record?
A: The value was 40.7 ± 1.8 kg.

Q: And the Body weight gain (two-week metformin treatment, iso-energetic feeding)?
A: Its Body weight gain is “+4.4±1.1 kg”.
